Earlier results, collected in publication PMC6295285 (Pharmaceutical research, 2018).

System: hOCT2
Conditions: read-out: IC50 for hOCT2 obtained previously by others; cited from earlier work

## Cc1ccc(NC(=O)c2ccc(CN3CCN(C)CC3)cc2)cc1Nc1nccc(-c2cccnc2)n1 [Imatinib]
  IC50: 5.81 µM
